In PMC4106786:
No constants are given. Whether binding was seen depends on the method and setting. For part of these data: Binding calls can cover weak binding; strength is not graded here.

Chains of the proteins cited; added tags and fusions are not shown. Lines headed by an entry give the natural chain unless they say otherwise; changes in a name come on top.
UniProt Q9H4E5: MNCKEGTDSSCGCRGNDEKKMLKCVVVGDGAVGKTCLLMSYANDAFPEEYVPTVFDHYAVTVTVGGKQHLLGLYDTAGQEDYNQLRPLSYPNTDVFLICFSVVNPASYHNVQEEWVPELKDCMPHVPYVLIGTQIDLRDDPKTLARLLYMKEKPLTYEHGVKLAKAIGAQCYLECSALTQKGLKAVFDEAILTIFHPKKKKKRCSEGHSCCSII
UniProt Q14155: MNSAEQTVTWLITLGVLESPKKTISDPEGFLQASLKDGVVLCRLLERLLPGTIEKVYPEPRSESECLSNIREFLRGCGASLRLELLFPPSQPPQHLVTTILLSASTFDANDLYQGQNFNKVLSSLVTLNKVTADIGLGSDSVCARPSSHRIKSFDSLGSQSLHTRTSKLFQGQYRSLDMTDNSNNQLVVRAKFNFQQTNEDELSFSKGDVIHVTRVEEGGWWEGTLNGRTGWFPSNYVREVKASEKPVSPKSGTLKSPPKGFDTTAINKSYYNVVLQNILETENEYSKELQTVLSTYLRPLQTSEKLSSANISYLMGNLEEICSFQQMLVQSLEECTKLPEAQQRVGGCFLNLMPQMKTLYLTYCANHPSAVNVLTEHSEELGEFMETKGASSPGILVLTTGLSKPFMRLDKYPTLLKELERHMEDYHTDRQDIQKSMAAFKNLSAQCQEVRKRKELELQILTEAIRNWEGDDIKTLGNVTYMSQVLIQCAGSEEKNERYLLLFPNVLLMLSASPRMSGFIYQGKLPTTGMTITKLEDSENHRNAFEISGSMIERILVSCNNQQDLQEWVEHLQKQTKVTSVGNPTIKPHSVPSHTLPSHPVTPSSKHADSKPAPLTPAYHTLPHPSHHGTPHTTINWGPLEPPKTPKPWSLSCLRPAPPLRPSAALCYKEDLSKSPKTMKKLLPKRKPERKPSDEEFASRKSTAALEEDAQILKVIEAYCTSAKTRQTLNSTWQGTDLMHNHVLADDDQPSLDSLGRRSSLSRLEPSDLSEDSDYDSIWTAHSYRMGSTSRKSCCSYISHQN
UniProt Q9Y2X7: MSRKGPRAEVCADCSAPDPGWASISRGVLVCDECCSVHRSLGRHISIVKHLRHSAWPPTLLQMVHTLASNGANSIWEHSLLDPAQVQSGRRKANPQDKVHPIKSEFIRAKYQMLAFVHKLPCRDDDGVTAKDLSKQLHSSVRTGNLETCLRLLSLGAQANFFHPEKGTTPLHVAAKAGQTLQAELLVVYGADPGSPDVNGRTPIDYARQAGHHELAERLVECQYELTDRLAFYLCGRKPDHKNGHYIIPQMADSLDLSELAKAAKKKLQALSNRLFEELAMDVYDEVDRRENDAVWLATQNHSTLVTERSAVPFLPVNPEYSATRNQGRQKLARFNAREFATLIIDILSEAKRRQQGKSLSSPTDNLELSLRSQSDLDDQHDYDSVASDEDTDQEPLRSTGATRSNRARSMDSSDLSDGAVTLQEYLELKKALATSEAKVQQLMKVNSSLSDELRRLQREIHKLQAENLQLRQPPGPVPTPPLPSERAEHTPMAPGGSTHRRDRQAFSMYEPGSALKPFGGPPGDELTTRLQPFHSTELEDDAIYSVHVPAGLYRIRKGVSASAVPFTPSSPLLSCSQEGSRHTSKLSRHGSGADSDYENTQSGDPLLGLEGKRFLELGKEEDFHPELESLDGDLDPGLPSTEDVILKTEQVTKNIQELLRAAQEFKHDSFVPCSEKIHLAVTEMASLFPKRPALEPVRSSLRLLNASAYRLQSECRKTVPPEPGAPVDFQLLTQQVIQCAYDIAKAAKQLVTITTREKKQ

Legend:
[1] = molecular target: Gal4 DNA-binding domain fusion of daRhoJ (Q79L) lacking the C-terminal CAAX box (UniProt Q9H4E5); assay: two-hybrid; Gal4 DNA-binding domain fusions (pGBT9) and Gal4 activation domain fusions (pACT2) in yeast PJ69-4A; growth on plates lacking histidine with 3 mM 3-AT, 3 to 5 days at 30°C
[2] = molecular target: Gal4 DNA-binding domain fusion of dnRhoJ (T35N) lacking the C-terminal CAAX box (UniProt Q9H4E5); assay: as above

Row | Substance | binding [1] | binding [2]
1 | Gal4 activation domain fusion of β-PIX (from UniProt Q14155 1-803) | no binding | 
2 | Gal4 activation domain fusion of GIT1 (from UniProt Q9Y2X7 1-761) | binds | no binding
